According to US20220202905A1, “COMPOSITION FOR PREVENTING OR TREATING NEUROTROPHIC KERATITIS WHICH CONTAINS PACAP PEPTIDE OR STABILIZED PACAP PEPTIDE” (SENJU PHARMACEUTICAL CO., LTD., priority 2019, published 2022):
Some of these results come from one statement about several compounds together. Square brackets hold non-standard residues; d marks the D form. Peptide text beside a SMILES is read from it. Ala(1H-tetrazol-5-yl) = N[C@@H](Cc1nnn[nH]1)C(=O)O

Assay: Peptide stability test, Tris buffer (pH 7.0), 60° C. storage, HPLC remaining rate
Type: physicochemical
Conditions: for stability in aqueous solution (in words), 60° C. storage: Tris buffer pH 7.0, 1 or 2 weeks
Method: Peptides 1, 2 and 6 to 9 synthesized in Example 2 were weighed and dissolved in Tris buffer (pH 7.0) to prepare 1.0 mM peptide solutions. Each solution was filtered with a Chromatdisk (product of Merck Millipore, Millex-GV, 0.22 μm). The filtrate was diluted to 100 μM with Tris buffer (pH 7.0) and dispensed into a tube (Protein LoBind Tube by Eppendorf Co.). The prepared peptide solutions were incubated for 1 week or 2 weeks in a 60° C. thermostatic bath to obtain stored samples. A simultaneously prepared sample among the peptide solutions that was not stored was used as a standard sample (initial sample). The standard sample and the stored samples were stored at −30° C. until sample analysis. Each stored sample was measured under the following HPLC analysis conditions 2, and the remaining rate after correction for water for each peptide among the stored samples was calculated in the same manner as Example 3. Guard column: XSelect CSH C18 by Waters Co., 5 μm, 4.6×20 mm Guard Cartridge Detection wavelength: 220 nm Mobile phase A: 0.1% formic acid aqueous solution Mobile phase B: 0.1% acetonitrile formate solution Measuring time: 20 minutes Measuring sample injection rate: 50 μL Flow rate: 1.0 mL/min Column temperature: 40° C. Sample cooler: 25° C. Mobile phase delivery: The mixing ratio of mobile phase A and mobile phase B was varied as shown in Table 5 for linear concentration gradient control. Peptides 12 to 25, 27 and 28 synthesized in Example 2 were weighed and dissolved in Tris buffer (pH 7.0) to prepare 1.0 mM peptide solutions. Each solution was filtered with a Chromatdisk (product of Merck Millipore, Millex-GV, 0.22 μm). The filtrate was diluted to 100 μM with Tris buffer (pH 7.0) and dispensed into a tube (Protein LoBind Tube by Eppendorf Co.). The prepared peptide solutions were incubated for one week or 2 weeks in a 60° C. thermostatic bath to obtain stored samples. A simultaneously prepared sample among the peptide solutions that was not stored was used as a standard sample (initial sample). The standard sample and the stored samples were stored at −30° C. until sample analysis. The remaining rate after correction for water for each peptide among the stored samples was calculated in the same manner as Example 4, and the results are shown in Table 7. Peptides 29 to 34 synthesized in Example 2 were weighed and dissolved in Tris buffer (pH 7.0) to prepare 1.0 mM peptide solutions. Each solution was filtered with a Chromatdisk (product of Merck Millipore, Millex-GV, 0.22 μm). […] The remaining rate after correction for water for each peptide among the stored samples was calculated in the same manner as Example 4, and the results are shown in Table 7-2. […]

Structure (SMILES) | stability in aqueous solution (in words), 60° C. storage | expected remaining rate for 2 years at room temperature (extrapolated from accelerated test at 60° C. (2 weeks ≈ 2 years at 25° C.))
CC[C@H](C)[C@H](NC(=O)[C@H](C)NC(=O)[C@H](Cc1nnn[nH]1)NC(=O)[C@H](CO)NC(=O)[C@H](Cc1c[nH]cn1)NC(C)=O)C(=O)N[C@@H](Cc1ccccc1)C(=O)N[C@H](C(=O)N[C@@H](Cc1nnn[nH]1)C(=O)N[C@@H](CO)C(=O)N[C@@H](Cc1ccc(O)cc1)C(=O)N[C@@H](CO)C(=O)N[C@@H](CCCNC(=N)N)C(=O)N[C@@H](Cc1ccc(O)cc1)C(=O)N[C@@H](CCCNC(=N)N)C(=O)N[C@@H](CCCCN)C(=O)N[C@@H](CCC(N)=O)C(=O)N[C@@H](C)C(=O)N[C@@H](C)C(=O)N[C@H](C(=O)N[C@@H](CCCCN)C(=O)N[C@@H](CCCCN)C(=O)N[C@@H](Cc1ccc(O)cc1)C(=O)N[C@@H](CC(C)C)C(=O)N[C@@H](C)C(=O)N[C@@H](C)C(=O)N[C@H](C(=O)N[C@@H](CC(C)C)C(N)=O)C(C)C)C(C)C)[C@@H](C)O [Peptide 32] (Ac-HS[Ala(1H-tetrazol-5-yl)]AIFT[Ala(1H-tetrazol-5-yl)]SYSRYRKQAAVKKYLAAVL-NH2) | High stability was also maintained | –
CC[C@H](C)[C@H](NC(=O)CNC(=O)[C@H](Cc1nnn[nH]1)NC(=O)[C@H](CO)NC(=O)[C@H](Cc1c[nH]cn1)NC(C)=O)C(=O)N[C@@H](Cc1ccccc1)C(=O)N[C@H](C(=O)N[C@@H](Cc1nnn[nH]1)C(=O)N[C@@H](CO)C(=O)N[C@@H](Cc1ccc(O)cc1)C(=O)N[C@@H](CO)C(=O)N[C@@H](CCCNC(=N)N)C(=O)N[C@@H](Cc1ccc(O)cc1)C(=O)N[C@@H](CCCNC(=N)N)C(=O)N[C@@H](CCCCN)C(=O)N[C@@H](CCC(N)=O)C(=O)N[C@@H](CC(C)C)C(=O)N[C@@H](C)C(=O)N[C@H](C(=O)N[C@@H](CCCCN)C(=O)N[C@@H](CCCCN)C(=O)N[C@@H](Cc1ccc(O)cc1)C(=O)N[C@@H](CC(C)C)C(=O)N[C@@H](C)C(=O)N[C@@H](C)C(=O)N[C@H](C(=O)N[C@@H](CC(C)C)C(N)=O)C(C)C)C(C)C)[C@@H](C)O [Peptide 9] (Ac-HS[Ala(1H-tetrazol-5-yl)]GIFT[Ala(1H-tetrazol-5-yl)]SYSRYRKQLAVKKYLAAVL-NH2) | – | ≥ 90%
CC[C@H](C)[C@H](NC(=O)[C@H](C)NC(=O)[C@H](Cc1nnn[nH]1)NC(=O)[C@H](C)NC(=O)[C@H](Cc1c[nH]cn1)NC(C)=O)C(=O)N[C@@H](Cc1ccccc1)C(=O)N[C@H](C(=O)N[C@@H](Cc1nnn[nH]1)C(=O)N[C@@H](CO)C(=O)N[C@@H](Cc1ccc(O)cc1)C(=O)N[C@@H](CO)C(=O)N[C@@H](CCCNC(=N)N)C(=O)N[C@@H](Cc1ccc(O)cc1)C(=O)N[C@@H](CCCNC(=N)N)C(=O)N[C@@H](CCCCN)C(=O)N[C@@H](CCC(N)=O)C(=O)N[C@@H](C)C(=O)N[C@@H](C)C(=O)N[C@H](C(=O)N[C@@H](CCCCN)C(=O)N[C@@H](CCCCN)C(=O)N[C@@H](Cc1ccc(O)cc1)C(=O)N[C@@H](CC(C)C)C(=O)N[C@@H](C)C(=O)N[C@@H](C)C(=O)N[C@H](C(=O)N[C@@H](CC(C)C)C(N)=O)C(C)C)C(C)C)[C@@H](C)O [Peptide 33] (Ac-HA[Ala(1H-tetrazol-5-yl)]AIFT[Ala(1H-tetrazol-5-yl)]SYSRYRKQAAVKKYLAAVL-NH2) | High stability was also maintained | –
CC[C@H](C)[C@H](NC(=O)[C@H](C)NC(=O)[C@H](Cc1nnn[nH]1)NC(=O)[C@H](CO)NC(=O)[C@H](Cc1c[nH]cn1)NC(C)=O)C(=O)N[C@@H](Cc1ccccc1)C(=O)N[C@H](C(=O)N[C@@H](Cc1nnn[nH]1)C(=O)N[C@@H](CO)C(=O)N[C@@H](Cc1ccc(O)cc1)C(=O)N[C@@H](CO)C(=O)N[C@@H](CCCNC(=N)N)C(=O)N[C@@H](Cc1ccc(O)cc1)C(=O)N[C@@H](CCCNC(=N)N)C(=O)N[C@@H](CCCCN)C(=O)N[C@@H](C)C(=O)N[C@@H](C)C(=O)N[C@@H](C)C(=O)N[C@H](C(=O)N[C@@H](CCCCN)C(=O)N[C@@H](CCCCN)C(=O)N[C@@H](Cc1ccc(O)cc1)C(=O)N[C@@H](CC(C)C)C(=O)N[C@@H](C)C(=O)N[C@@H](C)C(=O)N[C@H](C(=O)N[C@@H](CC(C)C)C(N)=O)C(C)C)C(C)C)[C@@H](C)O [Peptide 34] (Ac-HS[Ala(1H-tetrazol-5-yl)]AIFT[Ala(1H-tetrazol-5-yl)]SYSRYRKAAAVKKYLAAVL-NH2) | High stability was also maintained | –
